Results are given in words; binding and its absence hold for the method and conditions named. In cells and extracts the contact can be indirect. Some results given as binding are weak or reduced against the parent protein; the word gives no strength.
Target: T1, UDP-GlcNAc pyrophosphorylase-1 like 1 (UAP1L1) (human) (UniProt Q3KQV9)
T1 sequence: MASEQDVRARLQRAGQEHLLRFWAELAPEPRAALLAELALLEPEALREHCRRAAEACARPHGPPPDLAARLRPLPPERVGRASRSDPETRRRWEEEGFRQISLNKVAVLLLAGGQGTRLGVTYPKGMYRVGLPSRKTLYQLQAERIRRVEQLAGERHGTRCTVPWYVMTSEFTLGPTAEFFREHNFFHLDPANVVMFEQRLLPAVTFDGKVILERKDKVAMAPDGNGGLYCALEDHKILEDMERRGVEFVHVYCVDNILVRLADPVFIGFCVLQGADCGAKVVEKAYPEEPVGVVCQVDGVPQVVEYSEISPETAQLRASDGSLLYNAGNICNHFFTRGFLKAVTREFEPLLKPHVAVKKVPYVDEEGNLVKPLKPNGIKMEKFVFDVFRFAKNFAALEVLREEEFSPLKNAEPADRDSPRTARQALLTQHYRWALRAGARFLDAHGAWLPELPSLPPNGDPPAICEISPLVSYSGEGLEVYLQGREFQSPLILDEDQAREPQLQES
Experiment: co-IP; cell lysate in RIPA buffer, 1.0-1.2 mg proteins, normal rabbit IgG as control, protein A/G-beads, immunoblotting; precipitating antibody and cell line not told

The chains behind the UniProt entries cited, without tags or fusion partners.
UniProt Q00534: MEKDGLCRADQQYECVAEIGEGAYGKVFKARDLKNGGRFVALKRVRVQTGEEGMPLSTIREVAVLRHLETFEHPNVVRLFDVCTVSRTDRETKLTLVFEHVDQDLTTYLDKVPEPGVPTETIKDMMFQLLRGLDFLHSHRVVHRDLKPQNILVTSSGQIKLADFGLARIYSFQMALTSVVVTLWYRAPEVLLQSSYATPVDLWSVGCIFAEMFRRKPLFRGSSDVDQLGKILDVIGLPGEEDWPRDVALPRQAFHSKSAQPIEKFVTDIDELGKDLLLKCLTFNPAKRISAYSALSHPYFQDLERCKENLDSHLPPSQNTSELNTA

Substance: CDK6 (from UniProt Q00534 1-326)
- binding: binds
